Our source for the binding values is patent US20260125454A1.

No constants are given. Whether binding was seen depends on the method and setting. Some entries that bind do so weakly or less than the wild type.

For the assay, the target named is T1, rat α-CGRP (rat) (UniProt P01256).
T1 sequence (peptide, looked up): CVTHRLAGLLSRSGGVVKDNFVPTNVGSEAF
Nature of the assay: ELISA, hybridoma supernatant.

B1: 3C1 (antibody, V domains shown)
VH: EVQLQQSGPELVKPGASMKISCKASGYSFTGYTMNWVKQSHGNNLEWIGLINPYIGNTHYNQKFKDKATFTVDRSSSTAYMALLSLTSEDSAVYYCARELDSGFDYWGQGTTLTVSS
VL: DVLMTQTPLSLPVSLGDQASLSCRSSQNIVHSNGDTYLEWYLQKPGQSPKLLIYKVSNRFSGVPDRFSGSGSGTDFTLKISRVEAEDLGVYYCYQGSHVPWTFGGGTKLEIK
Turning to B1, the binding entry was “binds”.

B2: 3E5 (antibody, V domains shown)
VH: EVQLQQSGPELVKPGASVKISCKTSGYTFTDYNMHWVKQSHGKSLEWIGYISPYNGGTAYNQKFKFKSTLTVDTSSSTAYMELRSLTSEDSAVYYCAREGLGGYWGQGTTLTVSS
VL: DIVLTQSPASLAVSLGQRATISCKASQNIDYDGYTYLNWYQQKPGQPPKVLIYSIFNLESGIPARFSGSGSGTDFTLNIHPVEEEDAATYYCQQSNEVPYTFGGGTKLEIK
For the molecule B2, the binding entry is recorded as “binds”.
